Data source: PubChem BioAssay AID1508587 (Peter MacCallum Cancer Centre, 2020)
Screen: 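Knockdowns that add to vemurafenib's cut in melanoma glycolysis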 (follow-up of hits). Cells: human WM266.4 melanoma cells with a BRAF V600 mutation. Knock-down reagent: single siRNA against human genes, 25 nM. Timing: 96 h. Treatment: vemurafenib 300 nM (about IC25), given 48 h after transfection for 48 h. Measured: 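Medium lactate read by absorbance over DAPI-counted nuclei; ratio with versus without vemurafenib, set against non-targeting siRNA, averaged over 2 replicates; cell number also recorded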. Scale: lactate per cell, drug vs no drug: higher = less drug-induced drop in lactate per cell; lactate per cell with vemurafenib: higher = more lactate per cell under drug; lactate per cell without drug: higher = more lactate per cell without drug; cell growth with vemurafenib and cell growth without drug: higher = more cell growth over 48 h. Rule for the call: 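a duplex is active when its lactate-per-cell ratio with versus without drug falls under 0.55, i.e. 2 SD below non-targeting; a gene is confirmed if 2 or more of 4 duplexes pass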.
This is one part, drawn at random, of about 1,600 reagents. Over the whole deposit, 623 (39%) are marked active. 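Calls are for each duplex; lactate ratios contain extreme outliers.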 Reagents against one gene are numbered here.

The first 3 records, to show the layout:
target gene	reagent no.	lactate per cell, drug vs no drug	lactate per cell with vemurafenib	lactate per cell without drug	cell growth with vemurafenib	cell growth without drug	call
CYSTM1	1	0.64	0.94	1	0.03	0.61	inactive
CYSTM1	2	0.55	0.6	0.75	0.18	0.33	inactive
CYSTM1	3	0.84	1.83	1.5	0.23	0.24	inactive

The list itself, from the start:
target gene	reagent no.	lactate per cell, drug vs no drug	lactate per cell with vemurafenib	lactate per cell without drug	cell growth with vemurafenib	cell growth without drug	call
CYSTM1	1	0.64	0.94	1	0.03	0.61	inactive
CYSTM1	2	0.55	0.6	0.75	0.18	0.33	inactive
CYSTM1	3	0.84	1.83	1.5	0.23	0.24	inactive
CYSTM1	4	0.71	2.75	2.7	0.12	0.08	inactive
NSRP1	1	0.56	1.34	1.47	0.63	0.43	inactive
NSRP1	2	0.64	1.91	1.85	0.08	0.15	inactive
NSRP1	3	0.48	0.69	0.92	0.73	0.69	active
NSRP1	4	0.56	4.62	5.21	-0.02	-0.02	inactive
FPGS	1	0.87	1.76	1.36	0.67	0.61	inactive
FPGS	2	0.5	1.62	2.13	0.46	0.19	active
FPGS	3	0.87	0.97	0.72	0.59	0.72	inactive
FPGS	4	0.64	5.06	5.12	0.03	-0.03	inactive
RMDN1	1	1.16	3.05	1.8	-0.06	0.08	inactive
RMDN1	2	0.74	1.17	1.07	0.98	0.91	inactive
RMDN1	3	0.44	0.42	0.66	0.91	0.99	active
RMDN1	4	0.62	0.96	1.06	0.46	0.7	inactive
FOXO4	1	0.37	0.6	1.03	0.35	0.52	active
FOXO4	2	0.55	1.1	1.19	0.7	0.55	inactive
FOXO4	3	0.42	0.98	1.35	0.4	0.4	active
FOXO4	4	0.57	1.29	1.47	0.19	0.21	inactive
MAP3K7	1	0.69	1.94	1.78	0.41	0.47	inactive
MAP3K7	2	0.48	0.86	1.12	0.85	0.7	active
MAP3K7	3	0.99	2.69	1.73	0.04	0.15	inactive
MAP3K7	4	0.61	0.77	0.79	0.98	1.2	inactive
SLC25A35	1	0.58	2.61	2.77	0.13	0.07	inactive
SLC25A35	2	0.74	0.99	0.82	0.45	0.72	inactive
SLC25A35	3	0.78	1.23	0.99	-0.1	-0.01	inactive
SLC25A35	4	0.62	1.29	1.31	0.46	0.32	inactive
LSM1	1	0.63	1.45	1.5	0.28	0.37	inactive
LSM1	2	0.42	0.6	0.93	0.63	0.57	active
LSM1	3	0.69	1.9	1.81	0.35	0.27	inactive
LSM1	4	0.68	1.15	1.12	0.87	0.86	inactive
GARIN4	1	0.55	1.16	1.48	0.49	0.29	inactive
GARIN4	2	0.55	1.78	2.34	-0.1	-0.01	inactive
GARIN4	3	0.55	0.86	1.07	0.42	0.55	inactive
GARIN4	4	0.96	2.64	1.88	0.36	0.42	inactive
UBE2K	1	0.53	1.38	1.51	0.93	0.66	active
UBE2K	2	0.6	2.12	2.1	0	0	inactive
UBE2K	3	0.57	1.07	1.1	0.23	0.51	inactive
UBE2K	4	0.54	1.01	1.12	0.37	0.5	active
TMED9	1	0.64	1.01	1.09	0.22	0.62	inactive
TMED9	2	0.43	1.1	1.83	0.64	0.27	active
TMED9	3	0.58	1.54	1.79	0.1	0.14	inactive
TMED9	4	0.48	1.29	1.85	0.29	0.12	active
GFRA4	1	0.6	1.62	1.6	0.41	0.21	inactive
GFRA4	2	0.4	1.11	1.66	0.6	0.58	active
GFRA4	3	0.46	1.08	1.38	0.44	0.4	active
GFRA4	4	0.62	1.07	1.02	0.6	0.82	inactive
TNPO3	1	0.74	1.82	1.66	0.11	0.11	inactive
TNPO3	2	0.26	2.01	5.16	-0.06	-0.07	active
TNPO3	3	0.58	1.06	1.25	0.11	0.12	inactive
TNPO3	4	0.7	0.74	0.72	0.35	0.88	inactive
